Results are given in words; binding and its absence hold for the method and conditions named. Binding can be weak; no strength is given. For some of these results: Binding seen in cells or lysates may run through a third protein.

The chains behind the UniProt entries cited, without tags or fusion partners. Where a name states a change or a piece, a line headed by the entry shows the natural chain unless it says otherwise.
UniProt Q13838: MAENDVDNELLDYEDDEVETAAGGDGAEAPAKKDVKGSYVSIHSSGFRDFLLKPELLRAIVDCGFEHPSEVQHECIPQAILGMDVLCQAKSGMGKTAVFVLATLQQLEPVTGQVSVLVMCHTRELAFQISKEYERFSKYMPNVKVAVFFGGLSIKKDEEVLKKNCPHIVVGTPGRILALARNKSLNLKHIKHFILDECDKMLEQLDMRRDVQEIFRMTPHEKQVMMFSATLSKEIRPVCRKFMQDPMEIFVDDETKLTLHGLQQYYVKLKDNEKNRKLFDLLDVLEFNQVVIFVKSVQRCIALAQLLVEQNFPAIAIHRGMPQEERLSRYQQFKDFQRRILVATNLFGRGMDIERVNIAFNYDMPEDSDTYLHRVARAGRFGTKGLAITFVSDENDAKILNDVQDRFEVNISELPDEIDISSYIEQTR
UniProt P12830: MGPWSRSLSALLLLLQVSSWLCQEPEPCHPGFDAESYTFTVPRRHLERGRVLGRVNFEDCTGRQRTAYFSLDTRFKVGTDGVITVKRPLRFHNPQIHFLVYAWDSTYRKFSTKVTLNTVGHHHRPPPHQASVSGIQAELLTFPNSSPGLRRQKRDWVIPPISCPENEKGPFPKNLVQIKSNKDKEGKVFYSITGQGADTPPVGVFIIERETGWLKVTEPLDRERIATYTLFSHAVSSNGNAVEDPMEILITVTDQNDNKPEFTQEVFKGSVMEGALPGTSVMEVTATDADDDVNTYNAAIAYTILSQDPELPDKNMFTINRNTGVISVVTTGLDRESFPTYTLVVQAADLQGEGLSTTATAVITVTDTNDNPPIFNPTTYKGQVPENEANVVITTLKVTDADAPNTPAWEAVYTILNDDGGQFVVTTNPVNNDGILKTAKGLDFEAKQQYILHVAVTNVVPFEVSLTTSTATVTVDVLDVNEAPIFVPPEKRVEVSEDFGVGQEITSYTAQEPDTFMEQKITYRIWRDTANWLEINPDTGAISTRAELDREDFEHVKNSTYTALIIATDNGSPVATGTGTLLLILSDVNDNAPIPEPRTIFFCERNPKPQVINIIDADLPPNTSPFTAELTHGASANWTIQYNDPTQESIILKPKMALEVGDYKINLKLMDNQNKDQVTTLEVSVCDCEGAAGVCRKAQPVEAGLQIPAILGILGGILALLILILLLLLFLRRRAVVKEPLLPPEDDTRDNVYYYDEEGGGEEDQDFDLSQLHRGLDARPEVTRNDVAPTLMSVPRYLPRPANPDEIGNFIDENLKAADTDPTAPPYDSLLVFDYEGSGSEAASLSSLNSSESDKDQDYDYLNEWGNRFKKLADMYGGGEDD
UniProt Q13263: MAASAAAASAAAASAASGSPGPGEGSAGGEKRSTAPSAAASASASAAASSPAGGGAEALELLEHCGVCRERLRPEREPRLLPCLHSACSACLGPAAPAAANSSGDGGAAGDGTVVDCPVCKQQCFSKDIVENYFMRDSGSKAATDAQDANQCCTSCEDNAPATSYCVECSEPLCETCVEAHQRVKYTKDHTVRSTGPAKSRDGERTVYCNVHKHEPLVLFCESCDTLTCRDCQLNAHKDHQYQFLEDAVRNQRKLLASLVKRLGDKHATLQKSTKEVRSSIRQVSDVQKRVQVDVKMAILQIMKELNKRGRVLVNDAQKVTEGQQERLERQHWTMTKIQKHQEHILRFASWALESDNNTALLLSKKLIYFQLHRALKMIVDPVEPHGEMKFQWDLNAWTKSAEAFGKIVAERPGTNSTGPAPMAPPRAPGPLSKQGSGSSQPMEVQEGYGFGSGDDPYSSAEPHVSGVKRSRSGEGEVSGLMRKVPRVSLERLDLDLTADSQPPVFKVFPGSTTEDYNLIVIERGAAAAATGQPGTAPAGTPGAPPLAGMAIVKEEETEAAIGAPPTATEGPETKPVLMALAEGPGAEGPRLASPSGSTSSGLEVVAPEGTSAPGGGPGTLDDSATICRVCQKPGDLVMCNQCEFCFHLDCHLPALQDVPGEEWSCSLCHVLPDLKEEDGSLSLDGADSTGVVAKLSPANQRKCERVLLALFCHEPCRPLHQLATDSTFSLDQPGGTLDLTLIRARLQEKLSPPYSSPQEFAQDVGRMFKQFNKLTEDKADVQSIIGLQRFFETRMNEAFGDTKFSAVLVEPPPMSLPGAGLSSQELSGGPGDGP

The text below walks through data of article PMC12263876, “DDX39B K63-linked ubiquitination mediated by TRIM28 promotes NSCLC metastasis by enhancing ECAD lysosomal degradation” (Signal Transduction and Targeted Therapy, 2025).

Test [1] deals with Flag-DDX39B (in 293T cells) (UniProt Q13838). Nature of the test: co-IP; tandem affinity purification from lysates of 293T cells co-transfected with Flag-DDX39B and HA-ECAD, using anti-Flag and anti-HA magnetic beads.
Test [2] has as its target GST-ECD (GST-tagged ECAD cytoplasmic domain) (UniProt P12830). Nature of the test: pull-down; GST pull-down of purified recombinant proteins; GST agarose, incubation at 4 °C overnight, 5 rinses with TBS, elution with 1% SDS, immunoblot; both purified. In general terms: Immunoblotting shows a protein as a band on a membrane.
The next test has as its target GST-TRIM28 (UniProt Q13263). Described as above.
Another test deals with GST-DDX39B (UniProt Q13838). Described as above.
Test [3] has as its target Flag-DDX39B (DExD-box helicase 39B) (UniProt Q13838). Nature of the test: co-IP; exogenous co-IP in NSCLC cell lines (A549, H1299); anti-Flag magnetic beads overnight at 4 °C, 5 washes with TBS, Western blot.
The target in the next test is VN173-DDX39B (UniProt Q13838). Description: split reporter; BiFC in living NSCLC cells co-transfected with VN173 and VC155 fusion plasmids; reconstituted fluorophore signal.
A further test addresses HA-ECAD (in 293T cells) (UniProt P12830). Nature of the test: co-IP; tandem affinity purification from lysates of 293T cells co-transfected with Flag-DDX39B and HA-ECAD, using anti-Flag and anti-HA magnetic beads.
The target of test [4] is E-cadherin (ECAD), endogenous (human (endogenous in A549 and H1299)). Nature of the test: co-IP; co-IP from NSCLC cell lysates (A549, H1299, A549-BM) with the indicated antibodies or normal IgG overnight at 4 °C, 5 washes with TBS, Western blot; also after EGF (30 ng/ml) or TGF-β (10 ng/ml) for 72 h, and in cells overexpressing DDX39B WT, P322A or 3KR.

With “HA-ECAD (in 293T cells) (from UniProt P12830)”, the binding result in test [1] is “binds”.

Take “His-DDX39B (wild type) (from UniProt Q13838)”: the binding entry (in test [2]; with GST-TRIM28) was “binds” throughout.

With His-TRIM28 (from UniProt Q13263 1-835), the binding result in the test with GST-DDX39B was “binds”.

For “TRIM28 (tripartite motif-containing 28), endogenous (from UniProt Q13263 1-835)”, the binding entry in test [3] was “binds”.

For the molecule VC155-ECAD (from UniProt P12830), in the test with VN173-DDX39B, the binding entry was “binds”.

As to “VC155-TRIM28 (from UniProt Q13263 1-835)”, the binding result with VN173-DDX39B is “binds”.

B1: Hakai (E3 ubiquitin ligase) (protein, UniProt Q75N03 1-491)
chain: MDHTDNELQGTNSSGSLGGLDVRRRIPIKLISKQANKAKPAPRTQRTINRMPAKAPPGDEEGFDYNEEERYDCKGGELFANQRRFPGHLFWDFQINILGEKDDTPVHFCDKCGLPIKIYGRMIPCKHVFCYDCAILHEKKGDKMCPGCSDPVQRIEQCTRGSLFMCSIVQGCKRTYLSQRDLQAHINHRHMRAGKPVTRASLENVHPPIAPPPTEIPERFIMPPDKHHMSHIPPKQHIMMPPPPLQHVPHEHYNQPHEDIRAPPAELSMAPPPPRSVSQETFRISTRKHSNLITVPIQDDSNSGAREPPPPAPAPAHHHPEYQGQPVVSHPHHIMPPQQHYAPPPPPPPPISHPMPHPPQAAGTPHLVYSQAPPPPMTSAPPPITPPPGHIIAQMPPYMNHPPPGPPPPQHGGPPVTAPPPHHYNPNSLPQFTEDQGTLSPPFTQPGGMSPGIWPAPRGPPPPPRLQGPPSQTPLPGPHHPDQTRYRPYYQ
For the molecule B1, the binding result (in test [1]; with HA-ECAD (in 293T cells); in test [4]) was “binds” throughout.
